Source: article doi:10.1101/2024.03.18.584613
These are yes or no findings as the source states them, for the method shown. In cells and extracts the contact can be indirect. Where a sequence is shown, tags or fusion partners need not be part of it.

Chains of the proteins cited; added tags and fusions are not shown.
UniProt Q3KP44: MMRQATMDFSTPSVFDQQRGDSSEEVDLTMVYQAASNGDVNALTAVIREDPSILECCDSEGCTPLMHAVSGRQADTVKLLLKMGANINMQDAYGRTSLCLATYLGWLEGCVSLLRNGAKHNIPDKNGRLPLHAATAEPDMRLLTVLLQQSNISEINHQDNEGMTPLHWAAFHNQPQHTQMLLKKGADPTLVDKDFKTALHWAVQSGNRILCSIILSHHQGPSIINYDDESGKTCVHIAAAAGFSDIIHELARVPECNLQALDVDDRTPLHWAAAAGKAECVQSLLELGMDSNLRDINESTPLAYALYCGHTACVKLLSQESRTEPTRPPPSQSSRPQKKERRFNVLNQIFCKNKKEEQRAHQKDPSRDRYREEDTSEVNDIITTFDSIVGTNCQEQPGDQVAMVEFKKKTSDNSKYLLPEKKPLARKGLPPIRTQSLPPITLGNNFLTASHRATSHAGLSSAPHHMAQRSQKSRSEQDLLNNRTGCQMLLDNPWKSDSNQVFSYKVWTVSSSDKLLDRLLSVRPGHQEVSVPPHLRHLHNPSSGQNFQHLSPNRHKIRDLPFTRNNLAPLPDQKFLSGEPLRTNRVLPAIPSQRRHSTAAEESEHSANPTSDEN

Target: ANKRD55-EGFP (human) (UniProt Q3KP44)
Assay: co-IP

B1: IFT74 fused to mCherry (protein, UniProt Q96LB3 1-600)
chain: MASNHKSSAARPVSRGGVGLTGRPPSGIRPLSGNIRVATAMPPGTARPGSRGCPIGTGGVLSSQIKVAHRPVTQQGLTGMKTGTKGPQRQILDKSYYLGLLRSKISELTTEVNKLQKGIEMYNQENSVYLSYEKRAETLAVEIKELQGQLADYNMLVDKLNTNTEMEEVMNDYNMLKAQNDRETQSLDVIFTERQAKEKQIRSVEEEIEQEKQATDDIIKNMSFENQVKYLEMKTTNEKLLQELDTLQQQLDSQNMKKESLEAEIAHSQVKQEAVLLHEKLYELESHRDQMIAEDKSIGSPMEEREKLLKQIKDDNQEIASMERQLTDTKEKINQFIEEIRQLDMDLEEHQGEMNQKYKELKKREEHMDTFIETFEETKNQELKRKAQIEANIVALLEHCSRNINRIEQISSITNQELKMMQDDLNFKSTEVQKSQSTAQNLTSDIQRLQLDLQKMELLESKMTEEQHSLKSKIKQMTTDLEIYNDLPALKSSGEEKIKKLHQERMILSTHRNAFKKIMEKQNIEYEALKTQLQENETHSQLTNLERKWQHLEQNNFAMKEFIATKSQESDYQPIKKNVTKQIAEYNKTIVDALHSTSGN
In the case of B1, the binding is reported as “no binding”.
